This is one part of the list.

Chains of the proteins cited; added tags and fusions are not shown. Lines headed by an entry give the natural chain unless they say otherwise; changes in a name come on top.
UniProt Q8NB91: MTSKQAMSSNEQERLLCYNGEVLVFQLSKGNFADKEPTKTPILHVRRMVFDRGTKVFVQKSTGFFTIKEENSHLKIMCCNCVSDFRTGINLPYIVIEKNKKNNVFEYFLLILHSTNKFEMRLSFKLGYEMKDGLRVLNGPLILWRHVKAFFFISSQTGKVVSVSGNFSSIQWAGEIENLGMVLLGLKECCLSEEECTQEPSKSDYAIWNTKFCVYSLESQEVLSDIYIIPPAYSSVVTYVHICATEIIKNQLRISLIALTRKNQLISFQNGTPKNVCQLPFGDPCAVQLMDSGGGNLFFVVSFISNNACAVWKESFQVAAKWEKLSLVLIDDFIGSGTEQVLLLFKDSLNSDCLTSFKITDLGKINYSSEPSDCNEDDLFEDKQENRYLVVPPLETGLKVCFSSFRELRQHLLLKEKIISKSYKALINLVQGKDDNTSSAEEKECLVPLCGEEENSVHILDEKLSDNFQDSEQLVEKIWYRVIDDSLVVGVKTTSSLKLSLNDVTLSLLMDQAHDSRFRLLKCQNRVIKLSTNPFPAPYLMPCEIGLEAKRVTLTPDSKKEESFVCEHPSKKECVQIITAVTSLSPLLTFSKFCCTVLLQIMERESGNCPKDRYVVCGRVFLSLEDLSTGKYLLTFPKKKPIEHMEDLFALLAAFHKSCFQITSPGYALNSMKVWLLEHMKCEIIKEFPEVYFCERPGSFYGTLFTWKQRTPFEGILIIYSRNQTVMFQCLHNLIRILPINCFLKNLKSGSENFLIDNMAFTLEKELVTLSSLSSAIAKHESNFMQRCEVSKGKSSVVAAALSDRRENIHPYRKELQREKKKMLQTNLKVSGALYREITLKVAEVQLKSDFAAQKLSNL
UniProt P26885: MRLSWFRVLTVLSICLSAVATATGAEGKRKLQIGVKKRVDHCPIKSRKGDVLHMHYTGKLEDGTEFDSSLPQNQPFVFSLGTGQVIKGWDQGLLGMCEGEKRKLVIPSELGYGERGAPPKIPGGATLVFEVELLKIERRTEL
UniProt Q96ME1: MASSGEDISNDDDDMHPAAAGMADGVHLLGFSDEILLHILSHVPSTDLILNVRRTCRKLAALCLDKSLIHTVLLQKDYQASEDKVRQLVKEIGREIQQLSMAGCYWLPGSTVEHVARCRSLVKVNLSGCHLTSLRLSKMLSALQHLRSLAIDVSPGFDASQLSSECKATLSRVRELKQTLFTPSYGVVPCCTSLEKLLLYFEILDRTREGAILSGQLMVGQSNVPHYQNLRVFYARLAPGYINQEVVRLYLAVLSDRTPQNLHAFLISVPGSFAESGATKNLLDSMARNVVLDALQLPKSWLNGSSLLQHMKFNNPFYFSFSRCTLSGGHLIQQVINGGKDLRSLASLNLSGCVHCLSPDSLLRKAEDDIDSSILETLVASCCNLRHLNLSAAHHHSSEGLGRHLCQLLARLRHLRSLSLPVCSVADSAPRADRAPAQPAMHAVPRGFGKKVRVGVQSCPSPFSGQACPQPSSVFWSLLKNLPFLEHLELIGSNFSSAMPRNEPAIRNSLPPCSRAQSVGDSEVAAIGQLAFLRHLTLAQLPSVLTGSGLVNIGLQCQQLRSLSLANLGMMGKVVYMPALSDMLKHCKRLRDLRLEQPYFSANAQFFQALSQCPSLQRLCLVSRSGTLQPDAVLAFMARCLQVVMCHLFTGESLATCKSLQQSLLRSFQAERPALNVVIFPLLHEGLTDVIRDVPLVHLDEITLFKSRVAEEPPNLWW
UniProt Q8WU58: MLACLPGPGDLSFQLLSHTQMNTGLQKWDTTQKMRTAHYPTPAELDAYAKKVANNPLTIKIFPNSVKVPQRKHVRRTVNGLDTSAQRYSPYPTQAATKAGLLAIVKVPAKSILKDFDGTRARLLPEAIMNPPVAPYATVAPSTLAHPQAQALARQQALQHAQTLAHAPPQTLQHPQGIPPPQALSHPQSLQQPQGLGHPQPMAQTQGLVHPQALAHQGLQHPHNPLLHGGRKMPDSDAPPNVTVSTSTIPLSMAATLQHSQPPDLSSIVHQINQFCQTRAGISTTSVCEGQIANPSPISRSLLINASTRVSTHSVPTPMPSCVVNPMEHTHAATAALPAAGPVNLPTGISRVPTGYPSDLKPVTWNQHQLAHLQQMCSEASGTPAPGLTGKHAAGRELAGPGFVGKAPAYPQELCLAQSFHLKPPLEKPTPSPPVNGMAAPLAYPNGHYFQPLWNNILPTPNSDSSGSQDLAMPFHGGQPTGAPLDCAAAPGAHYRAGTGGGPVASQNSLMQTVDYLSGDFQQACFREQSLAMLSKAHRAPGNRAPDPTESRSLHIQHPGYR

Compound in this assay: c1cn2cc(-c3ccc4cn[nH]c4c3)nc(Nc3ccc(N4CCOCC4)cc3)c2n1 [entospletinib]
Description: log2 fold change, soluble protein after heating vs DMSO (PISA); higher = thermal stabilisation; K562 cells, 10 uM, 30 min; active = over 0.2 and 3.5 SD of the protein, either way, in both replicates (recomputed). In short, it runs like this: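 Soluble protein was defined as the supernatant after 21,000xg for 90 min. It came from K562 cells at 2×10^6 cells/mL given 10 μM compound for 30 min, heated in aliquots for 3 min across 48°C-58°C, pooled, and extracted in PBS with 0.5% NP-40 at 4°C, and was quantified by TMTpro 16plex LC-MS/MS with equalised channel sums. Thermal stability against control samples, from duplicates, is reported as log2 fold change.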
Turning to FANCB (UniProt Q8NB91), the log2 fold change is inactive: 0.017.

On to FKBP2 (UniProt P26885), for which the log2 fold change was inactive: 0.021.

Consider FBXL18 isoform 4 (UniProt Q96ME1), for which the log2 fold change is inactive: 0.017.

Turning to FAM222B (UniProt Q8WU58), the log2 fold change is inactive: 0.029.

Source of the values: the supplement of paper PMC10849652.
